# Experimental data: PubChem BioAssay AID2685 (National Center for Advancing Translational Sciences (NCATS), 2010)
# The whole screen tested about 320,000 compounds, of which about 2,100 (0.66%) were called active. Inconclusive means that the source gave no clear call. Such entries were picked first, then a sample of the others. Calls come from the whole dose curve; as a rule, active = well fitted inhibition curve with a large enough effect in the signal ratio, with a control signal flat (not every such curve was filed as active); inconclusive = small, poorly fitted or top-dose-only effect, or effect the other way, or a change in a side signal; inactive = flat fitted curve, though single readings scatter; the % refers to the signal ratio. Potencies of inconclusive entries are doubtful fits and often do not repeat.
# Experiment: qHTS Assay for Lipid Storage Modulators in Drosophila S3 Cells
# Details: BODIPY lipid droplet fluorescence, 18-24 h, cells fed with added oleic acid; lipid storage change, negative = inhibition: at 46.1 µM (top of the series) unless noted
# Summary of the method: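 Drosophila S3 cells loaded with oleic acid (400 uM, as added) and compounds at several concentrations; lipid droplets imaged by 488-nm laser-scanning cytometry, 500–530 nm intensity and object ratio to cell channel. Percent activity normalized to 20 uM Triacsin C.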
# % is set by controls: 0 for no effect and ±100 for the full control effect; potency is the fitted concentration of half-maximal effect.
SMILES,"lipid storage change, negative = inhibition",Potency
O=c1c2ccccc2nc(SCc2cc([N+](=O)[O-])cc3c2OCOC3)n1-c1ccccc1,inconclusive: 3.04%,–
CCN1CCN(c2nc(Nc3ccc(NC(C)=O)cc3)nc(Nc3ccc(NC(C)=O)cc3)n2)CC1,inconclusive: -16.4%,–
COc1cccc(N2CC(C(=O)Nc3nnc(SCC(=O)Nc4ccc(NC(C)=O)cc4)s3)CC2=O)c1 (stereo unspecified),–,"inconclusive: 29.1 µM [activator, single point]"
CC(C)CC(=O)Nc1nnc(SCC(=O)NCc2ccco2)s1,inconclusive: -31.8%,–
CC(=O)NCc1nnc2c3ccccc3c(-c3ccccc3)nn12,inconclusive: 1.51%,–
CCOc1ccc(NC(=O)CN2CCN(CC(=O)c3ccc(OC)c(OC)c3)CC2)cc1,inconclusive: -22.8%,–
O=C(CCCC(=O)N1CCN(c2cccc(Cl)c2)CC1)c1ccccc1,inconclusive: -7.32%,–
CCc1noc(C)c1C(=O)N(C)CC(=O)Nc1cccc(OC)c1,inconclusive: 6.71%,–
CCCn1nc(C(=O)Nc2cc(C(=O)OC)ccc2C)c2ccccc2c1=O,inconclusive: 18.4%,–
COc1cc(/C=N/Nc2ccc(Cl)c(C(=O)O)c2)ccc1OCC(=O)N1C(C)CCCC1C (stereo unspecified),inconclusive: 38%,–
Cc1cc(=O)oc(C)c1C(=O)O,inconclusive: -29.3%,–
COc1ccc(-n2c(O)c(C=NC3CC3)c(=O)[nH]c2=O)cc1,inconclusive: 3.57%,–
CC(C)(C)OC(=O)N1CCC(CNC(=O)c2cccs2)CC1,inconclusive: -94.6%,–
COC(=O)c1ccc(CSc2nc3sc(C)c(C)c3c(=O)[nH]2)cc1,inconclusive: -23.7%,–
CCOc1cc2[nH]c(=S)n(Cc3ccc(C(=O)O)cc3)c(=O)c2cc1OCC,inconclusive: -25.3%,–
CCCCCn1c(=O)[nH]c2cc(C(=O)NCc3ccc4c(c3)OCO4)ccc2c1=O,inconclusive: 18.9%,–
Cc1cc(=O)oc2c3c(cc(OCC(=O)NCCCn4ccnc4)c12)OC(C)(C)CC3,–,"inconclusive: 5.17 µM [falling, partial curve, poor fit]"
Cc1ccc(S(=O)(=O)NC(CC(=O)O)c2ccco2)cc1 (stereo unspecified),inconclusive: -0.19%,–
O/N=C(/CCc1ccccc1)c1ccc2c(c1)OCCO2,inconclusive: -6.6%,–
CCn1cc(S(=O)(=O)Nc2ccc(Cl)cc2F)cn1,inconclusive: -15.5%,–
C=CCn1cnnc1SCC(=O)NCC1COc2ccccc2O1 (stereo unspecified),inconclusive,–
COc1ccc(C(=O)NCc2nnc(SCC(=O)N3CCOCC3)o2)cc1,inconclusive: -3.46%,–
CCC1SC2=NC(C)=C(C(=O)OCCOC)C(/C=C/c3ccccc3OC)N2C1=O (stereo unspecified),inconclusive: -22%,–
O=C(NCCCN1CCOCC1)c1cc(S(=O)(=O)N2CCN(c3ccccc3)CC2)ccc1Cl,inconclusive,–
CC(C)=CC(=O)OCC(=O)Nc1ncc(Cl)c(C)c1Cl,inconclusive: 20.2%,–
Cc1cccn2c(=O)c3cc(C#N)c(=O)n(-c4c(C)n(C)n(-c5ccccc5)c4=O)c3nc12,inconclusive: -39.7%,–

SMILES,"lipid storage change, negative = inhibition",Potency
O=C(COc1ccc(Cl)cc1Cl)N(C1CCCCC1)C1CCS(=O)(=O)C1 (stereo unspecified),–,"inconclusive: 9.2 µM [falling, partial curve]"
O=C(Nc1ccc2c(c1)OCCO2)c1coc2ccccc2c1=O,inconclusive: 15.5%,–
Cc1cccc(N(C(=O)Cc2cccs2)C(C(=O)NCc2ccco2)c2ccncc2)c1 (stereo unspecified),–,"inconclusive: 20.6 µM [falling, partial curve, poor fit]"
COc1ccc(C(=O)CC(=O)c2ccccc2O)cc1,–,"inconclusive: 29.1 µM [falling, single point]"
CCNc1nc(NCC)n2c(SCC(=O)Nc3ccc(NC(C)=O)cc3)nnc2n1,inconclusive: 25.5%,–
CCc1nc2ccc(C(=O)NCc3ccc(C)o3)cc2nc1CC,inactive,–
COC(=O)c1ccccc1NC(=O)CSc1nc(O)cc(=O)n1C1CCCC1,inactive,–
COc1ccc(-n2c(=O)c3c(C)c(C)sc3n(Cc3ccc(F)cc3)c2=O)c(OC)c1,inconclusive: 0.0585%,–
CC(=O)c1c(C)c(C)c2n1CCn1c(C)ccc1-2,inconclusive: -6.96%,–
Cc1c(C(=O)N2CCCCC2)oc2ccc(Br)cc12,inconclusive,–
CCOC(=O)c1ccccc1NC(=O)COC(=O)C(Cc1c[nH]c2ccccc12)NC(C)=O (stereo unspecified),inconclusive: -40.8%,–
O=C(OCCCCOC(=O)c1ccccc1)c1ccccc1,inconclusive: 14%,–
CC1CC(C)CN(C(=O)CCCn2c(=O)c3cccn3c3cccnc32)C1 (stereo unspecified),inconclusive: 217%,–
COc1cccc(C(=O)Oc2cc3c4c(c2)C(C)=CC(C)(C)N4C(=O)C3=O)c1,inconclusive: -27.9%,–
CC(C)c1cc(-c2cc(-c3ccc(Cl)cc3)on2)nc(NC2CCCC2)n1,inconclusive: 17.5%,–
O=c1[nH]nc2n1CCCCC2,–,"inconclusive: 29.1 µM [falling, single point]"
Cc1ccc(-c2ccc(/C=C3/NC(=O)NC3=O)o2)cc1[N+](=O)[O-],inconclusive: 31.3%,–
O=C(c1cc2ccccc2o1)c1nc2c(n1O)CCCCC2,–,"inconclusive: 29.1 µM [activator, single point]"
COCCCn1c(=S)[nH]c2sc3c(c2c1=O)CCCC3,inconclusive: -5.55%,–
COc1ccccc1OCC(=O)NCC(c1cccs1)N1CCOCC1 (stereo unspecified),inconclusive: -42% [at 0.00295 µM],–
CCOc1ccc(C(=O)C(CCC(CN(C)C)C(=O)c2ccc(OCC)cc2)CN(C)C)cc1 (stereo unspecified),–,"inconclusive: 25.9 µM [cytotoxic, partial curve, poor fit]"
COc1ccc2cc(C3=CC(=O)C[C@H](c4ccc5c(c4)OCO5)C3)ccc2c1,–,"inconclusive: 29.1 µM [activator, single point]"
Cc1cc2nc3c(nc2cc1C)CCCC3,inconclusive: 13.4%,–
COC(=O)C(NC(C)=O)(Nc1ccc(Br)cc1)C(=O)OC,inconclusive: -30.4%,–
COCCCNC(=O)c1c(N)n(/N=C/c2ccccn2)c2nc3ccccc3nc12,–,active: 7.31 µM

# Record cards, from the list above.
# `O=C(c1cc2ccccc2o1)c1nc2c(n1O)CCCCC2` in the list: Potency: inconclusive: 29.1 µM [activator, single point]
# `COc1cccc(C(=O)Oc2cc3c4c(c2)C(C)=CC(C)(C)N4C(=O)C3=O)c1` in the list: lipid storage change, negative = inhibition: inconclusive: -27.9%
